Source: PubChem BioAssay AID743255 (National Center for Advancing Translational Sciences (NCATS), 2014)
Hit rate of the full screen: of about 390,000 compounds, about 910 (0.23%) were called active. The shares of active, inactive and inconclusive entries below differ from those in the screen. Calls follow the shape of the dose curve; as a rule, active = well fitted inhibition curve with a large enough effect; inconclusive = small, poorly fitted or top-dose-only effect; inactive = no such curve, though single readings can be large or run the other way. Where the call is inconclusive, the potency comes from a doubtful curve fit.
Also: nearly all actives have a fitted effect of over 60% in size.
Potency is read from the fitted curve at half-maximal effect.

Sequences of proteins named here, by UniProt entry; tags and fusion partners are left off. A change or cut given only in a name is not applied to a line headed by its entry.
UniProt O94782: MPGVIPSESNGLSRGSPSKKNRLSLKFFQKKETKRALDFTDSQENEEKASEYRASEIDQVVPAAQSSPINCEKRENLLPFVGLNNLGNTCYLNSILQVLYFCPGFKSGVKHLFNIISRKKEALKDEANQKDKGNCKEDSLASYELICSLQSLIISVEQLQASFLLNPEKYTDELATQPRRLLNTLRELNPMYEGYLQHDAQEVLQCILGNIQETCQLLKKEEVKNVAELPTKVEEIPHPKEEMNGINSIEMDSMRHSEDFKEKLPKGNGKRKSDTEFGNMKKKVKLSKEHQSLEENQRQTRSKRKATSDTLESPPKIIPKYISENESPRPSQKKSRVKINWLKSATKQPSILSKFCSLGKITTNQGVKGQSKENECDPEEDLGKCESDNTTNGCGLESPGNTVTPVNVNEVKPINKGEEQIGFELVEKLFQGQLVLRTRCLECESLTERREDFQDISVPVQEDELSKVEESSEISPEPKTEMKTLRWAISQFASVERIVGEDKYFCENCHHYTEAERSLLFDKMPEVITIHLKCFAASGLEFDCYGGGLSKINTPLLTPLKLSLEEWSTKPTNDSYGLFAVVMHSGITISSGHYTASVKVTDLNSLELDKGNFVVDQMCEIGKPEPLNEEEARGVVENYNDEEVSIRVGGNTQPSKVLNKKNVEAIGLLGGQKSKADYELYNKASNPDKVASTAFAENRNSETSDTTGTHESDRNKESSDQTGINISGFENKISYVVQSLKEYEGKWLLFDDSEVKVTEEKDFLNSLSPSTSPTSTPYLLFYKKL

What follows are compounds tested against Ubiquitin carboxyl-terminal hydrolase 1 (Homo sapiens) (UniProt O94782) (assay: Inhibitors of USP1/UAF1: Primary Screen). Conditions: recombinant USP1/UAF1, Ub-Rhodamine cleavage fluorescence; series mostly up to 57.1 µM.
In short: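 Step one: compound is pinned into 1nM USP1/UAF1 in HEPES pH 7.8 buffer with TCEP. Step two: 15 min room-temperature incubation. Step three: Ub-Rho (150nM final) starts cleavage, tracked by fluorescence over six one-minute reads.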
In the case of `COc1ccc(NC(=O)Cn2c(=O)n(Cc3ccco3)c(=O)c3oc4ccccc4c32)cc1Cl`, the Potency is reported as “inactive”. With `O=C(O)CCN1C(=O)S/C(=C\c2cccnc2)C1=O` the Potency was inconclusive: 44.7 µM [inhibitor, partial curve, poor fit]. `Cc1ccccc1Nc1nc(N)nc(COC(=O)CCS(=O)(=O)c2ccccc2)n1` was tested, and the Potency was “inactive”. In the case of `CCn1c(O)c(/C=N/N=C/c2ccccc2)c2ccc(C3=NNC(=O)CC3)cc21`, the Potency is reported as inconclusive: 35.5 µM [inhibitor, single point]. `CCOC(=O)C1=C(C)NC2=C(C(=O)CCC2)C1c1ccc(O)c(OCC)c1` (stereo not given) was tested, and the Potency was “inactive”. For `COC(=O)Cn1c(=O)c2c(n(Cc3ccccc3)c1=O)N/C(=C/c1ccc(Br)cc1)C2=O`, the Potency was inconclusive: 28.2 µM [inhibitor, single point]. In the case of `CN1CCc2c(sc3nc(NN)n(-c4ccc(Cl)cc4)c(=O)c23)C1`, the Potency is reported as “inactive”. In the case of `Cc1ccn2c(NC3CCCCC3)c(-c3cccc(SC4CCCCC4)c3)nc2c1`, the Potency is reported as inconclusive: 50.1 µM [inhibitor, partial curve, poor fit]. In the case of `N#C/C(=C\c1ccc(N2CCOCC2)o1)C(=O)NCCc1ccccc1`, the Potency is reported as inconclusive: 39.8 µM [inhibitor, partial curve, poor fit]. In the case of `COc1cc(CNc2ccc(N3CCCC3)cc2)cc(Cl)c1OC`, the Potency is reported as inconclusive: 25.1 µM [inhibitor, partial curve]. With `CCCc1nn2cc(-c3ccc(C)c(C)c3)nc2s1` the Potency was “inactive”. `CCCCCCCC1CC(CSc2ncn[nH]2)OC1=O` (stereo not given) was tested, and the Potency was “inactive”. For `CCN(CC)c1ccc2cc(C(C)=O)c(=O)oc2c1`, the Potency was inconclusive: 28.2 µM [inhibitor, single point]. For `CC(=O)c1cccc(NC(=O)C2CCN(S(=O)(=O)c3ccccc3)CC2)c1`, the Potency was inconclusive: 6.31 µM [inhibitor, single point]. In the case of `CCCc1c(OCCCOc2ccc(OCC(=O)O)cc2)ccc(C(C)=O)c1O`, the Potency is reported as inconclusive: 70.8 µM [inhibitor, partial curve, poor fit]. In the case of `C[C@H](CO)N1C[C@H](C)[C@@H](CN(C)S(=O)(=O)c2cn(C)cn2)Oc2c(NS(=O)(=O)c3cn(C)cn3)cccc2C1=O`, the Potency is reported as inconclusive: 44.7 µM [inhibitor, partial curve, poor fit]. `c1ccc(N2CCN(c3nc4cc5c(cc4s3)OCCO5)CC2)cc1` was tested, and the Potency was “inactive”. For `CCCOc1ccc(NCC(=O)Nc2ccc(C)cc2C)cc1`, the Potency was inconclusive: 3.98 µM [inhibitor, full curve]. `CN(Cc1ccc(F)cc1)S(=O)(=O)c1nnc(NC(=O)c2ccccc2)s1` was tested, and the Potency was inconclusive: 7.94 µM [inhibitor, partial curve, poor fit]. With `O=C(Nc1nccs1)c1ccc(COc2ccccc2)o1` the Potency was “inactive”. For `CC(=O)Nc1ccc(S(=O)(=O)NC2=C(N3CCN(Cc4ccccc4)CC3)C(=O)c3ccccc3C2=O)cc1`, the Potency was inconclusive: 17.8 µM [inhibitor, partial curve]. In the case of `CCOc1nc(OCC)nc(N2CCC(C)CC2)n1`, the Potency is reported as “inactive”. `C=CCN(C(=O)CSc1nnnn1C)c1nc(-c2ccccc2)cs1` was tested, and the Potency was inconclusive: 5.01 µM [inhibitor, full curve]. For `O=C(O)/C(=C\c1ccccc1)c1ccc2ccccc2c1`, the Potency was inconclusive: 2 µM [inhibitor, full curve, poor fit]. With `COc1ccc(OC)c(N=Cc2c(O)c3ccccc3oc2=O)c1` the Potency was inconclusive: 14.1 µM [inhibitor, partial curve]. For `CCC1(c2ccccc2)NC(=O)N(CC(=O)Nc2ccc(OC)nc2)C1=O` (stereo not given), the Potency was inconclusive: 28.2 µM [inhibitor, single point]. `CC1(C)COC2(OC1)C(=O)N(CN1CCOCC1)c1ccccc12` was tested, and the Potency was inconclusive: 7.08 µM [inhibitor, full curve, poor fit]. For `CCSc1cc(C2C(C(=O)OC)=C(C)NC3=C2C(=O)CCC3)c(C)o1` (stereo not given), the Potency was inconclusive: 44.7 µM [inhibitor, partial curve, poor fit]. With `OC(c1cc(-c2cccc(Cl)c2)nc2ccccc12)C1CCCCN1` (stereo not given) the Potency was inconclusive: 39.8 µM [inhibitor, single point]. For `COC(=O)C1=C(C)N(c2cccc(OC)c2)C(=O)/C1=C\c1ccco1`, the Potency was “inactive”. In the case of `Cc1ccc(N2C(=O)C3C(C2=O)C2C=CC3C23CC3)c([N+](=O)[O-])c1` (stereo not given), the Potency is reported as inconclusive: 7.08 µM [inhibitor, partial curve, poor fit]. For `COc1ccc2cc(CCN3C(=O)c4ccccc4C3=O)c(=O)[nH]c2c1`, the Potency was inconclusive: 35.5 µM [inhibitor, single point]. In the case of `CC(C)n1cnc2c(Nc3cccc(Cl)c3)nc(N(CCO)CCCO)nc21`, the Potency is reported as inconclusive: 39.8 µM [inhibitor, single point]. With `C=CCNC(=O)c1cccc2c1C(=O)c1ccc(N3CCCC3)cc1S2(=O)=O` the Potency was inconclusive: 44.7 µM [inhibitor, partial curve]. For `CC(C)(C)c1csc(NC(=O)CSC2=NCCS2)n1`, the Potency was inconclusive: 44.7 µM [inhibitor, single point]. In the case of `Cn1c(N)c(C(=O)CSc2nnc(-c3c[nH]c4ccccc34)n2C2CC2)c(=O)[nH]c1=O`, the Potency is reported as inconclusive: 44.7 µM [inhibitor, partial curve, poor fit]. With `CCn1c(C)c(C(C)=O)c(N2CCN(C(c3ccccc3)c3ccccc3)CC2)nc1=S` the Potency was “inactive”. For `CN1CCN(C(=S)NC(=O)c2cccc([N+](=O)[O-])c2)CC1`, the Potency was inconclusive: 89.1 µM [inhibitor, partial curve, poor fit]. With `O=C(CSc1cc([N+](=O)[O-])cc(S(=O)(=O)Cc2ccccc2)c1)NC1CC1` the Potency was “inactive”. `Cn1cc(/C=C2\SC(=S)N(NC(=O)c3ccccc3Cl)C2=O)c2ccccc21` was tested, and the Potency was inconclusive: 35.5 µM [inhibitor, partial curve, poor fit]. In the case of `COc1cc(Cl)c(C)cc1NC(=O)Cn1c(C)c2cnn(-c3ccccc3)c(=O)c2c1C`, the Potency is reported as inconclusive: 44.7 µM [inhibitor, partial curve]. `Cc1csc(=Nc2c(C)n(C)n(-c3ccccc3)c2=O)n1Cc1ccccc1` was tested, and the Potency was inconclusive: 4.47 µM [inhibitor, full curve, poor fit]. With `Cc1cc2ccccn2c1C(=O)c1ccc([N+](=O)[O-])cc1[N+](=O)[O-]` the Potency was “inactive”. With `CC1=CN2C(=N)/C(=C/c3ccc([N+](=O)[O-])o3)C(=O)N=C2S1` the Potency was inconclusive: 25.1 µM [inhibitor, partial curve]. For `Cc1cc(C)c2c(C(C)(C)C)nn(-c3ccccc3)c2n1`, the Potency was inconclusive: 39.8 µM [inhibitor, partial curve, poor fit]. For `O=C(Nc1c[nH]c(=O)[nH]c1=O)c1cccc(F)c1`, the Potency was inconclusive: 1.41 µM [inhibitor, partial curve, poor fit]. `O=C(CNC1CCCCCC1)Nc1ccc(S(=O)(=O)NC2CC2)cc1` was tested, and the Potency was inconclusive: 25.1 µM [inhibitor, partial curve]. In the case of `Oc1ccc(CN2CCCc3ccccc32)c2cccnc12`, the Potency is reported as “inactive”. `Cc1ccc(C(c2nnnn2C2CCCCC2)N2CCN3CCCC3C2)cc1` (stereo not given) was tested, and the Potency was “inactive”. `O=C(OCc1cccc([N+](=O)[O-])c1)c1cccnc1Cl` was tested, and the Potency was “inactive”. With `COC(=O)C1=C(C)N(CC2CC2)C(=NCc2cccc(C(F)(F)F)c2)N[C@H]1c1ccccc1` the Potency was inconclusive: 7.94 µM [inhibitor, partial curve]. With `CCOc1ccc(CC2S/C(=N/N=C/c3ccco3)NC2=O)cc1` (stereo not given) the Potency was “inactive”. For `CN(C)/C=C1\Oc2ccc3ccccc3c2C1=O`, the Potency was “inactive”. With `COc1ccc(-c2nc(SCC(=O)Nc3ccc4c(c3)OCO4)c(-c3ccc(OC)cc3)[nH]2)cc1` the Potency was inconclusive: 20 µM [inhibitor, partial curve, poor fit]. `COc1ccc(-c2[nH]ncc2CN2CCC(O)(c3ccc(Cl)cc3)CC2)cc1` was tested, and the Potency was “inactive”. In the case of `CN(C(=O)CSc1nc2c(c(=O)[nH]1)CCCC2)c1ccccc1`, the Potency is reported as “inactive”. In the case of `COc1ccccc1NC(=O)CSc1oc(-c2cccs2)nc1S(=O)(=O)c1ccc(Br)cc1`, the Potency is reported as inconclusive: 20 µM [inhibitor, partial curve, poor fit]. `COc1ccc(NCc2cc3cc4c(cc3n(CC(=O)Nc3ccc(C)cc3)c2=O)OCO4)cc1` was tested, and the Potency was inconclusive: 35.5 µM [inhibitor, partial curve]. For `COc1ccc(OC)c2[nH]c(=O)c(CCNC(=O)C(C)(C)C)cc12`, the Potency was inconclusive: 39.8 µM [inhibitor, partial curve]. In the case of `COc1ccc(C2Nc3cccc4cccc(c34)N2)cc1`, the Potency is reported as inconclusive: 35.5 µM [inhibitor, partial curve]. `CCOc1ccccc1Nc1cc(-c2ccccc2)nc(C)n1` was tested, and the Potency was inconclusive: 70.8 µM [inhibitor, partial curve, poor fit]. `COc1ccc(NC(=O)CSc2nnc(-c3cccs3)o2)cc1` was tested, and the Potency was inconclusive: 17.8 µM [inhibitor, partial curve, poor fit]. With `COc1cc(Cl)c(C)cc1NC(=O)CSc1ncc(S(=O)(=O)c2ccc(C(C)(C)C)cc2)c(=O)[nH]1` the Potency was inconclusive: 44.7 µM [inhibitor, partial curve, poor fit]. With `COc1cc(NC(=O)Cn2ncc3c([nH]c4ccc(C)cc43)c2=O)cc(OC)c1OC` the Potency was inconclusive: 35.5 µM [inhibitor, partial curve, poor fit]. For `COc1cc(C(=O)Nc2ccc3oc(-c4ccccc4)nc3c2)cc(OC)c1OC`, the Potency was “inactive”.
